The values that follow come from PubChem BioAssay AID330 (DTP/NCI, 2004).

The list does not hold the whole screen: it gathers tests that were run many times, whatever their T/C, doses with no T/C, and many T/C values between a quarter and a half above the control. Further doses and runs are listed elsewhere. T/C is the treated group as % of the vehicle group. Some entries give survivors of the animals treated and no T/C: the source files T/C as zero there, which appears to mark a toxic dose or a test without result, not a measured value. Some survivor counts are full or nearly so, which does not show that the dose was tolerated: survival well below the control is almost never listed, so the zero probably covers shortened survival too. Counts of survivors are from the toxicity check (mostly the fifth day) where no day follows; animals may have died later. Schedules are NCI's codes, read here as Q, the interval in days (D) or hours (H), X, the number of doses. Where survival is the endpoint, this PubChem deposit counts one and a half times the control or more as active, and values a quarter to a half above the control carry no call in these data; other NCI protocols may use other cut-offs. Some entries were tested several times; the values are given in rising order. Some T/C values are followed by the survivors on the day toxicity was checked, most often the fifth; without a count, all were alive then.

This assay deals with P388 leukemia ip, CD2F1 mice, survival T/C. Nature of the assay: NCI In Vivo Anticancer Drug Screen. Data for tumor model P388 Leukemia (intraperitoneal) in CD2F1 (CDF1) mice. The following applies: T/C endpoint: median survival time, higher T/C = longer survival.
The mark [1] stands for this setting: dose: 12.5 mg/kg/injection, schedule: Q01DX009 (ip), vehicle: Klucel (hydroxypropylcellulose) (HPC).
[2] abbreviates: dose: 50.0 mg/kg/injection, schedule: Q01DX009 (ip), vehicle: Klucel (hydroxypropylcellulose) (HPC).
Where [3] appears, read: dose: 50.0 mg/kg/injection, schedule: Q01DX005 (ip), vehicle: Klucel (hydroxypropylcellulose) (HPC).
Where [4] appears, read: dose: 100.0 mg/kg/injection, schedule: Q01DX005 (ip), vehicle: Klucel (hydroxypropylcellulose) (HPC).
The mark [5] stands for this setting: dose: 200.0 mg/kg/injection, schedule: Q01DX005 (ip), vehicle: Klucel (hydroxypropylcellulose) (HPC).
Setting [6] is: dose: 400.0 mg/kg/injection, schedule: Q01DX001 (ip), vehicle: saline with Tween-80.
Where [7] appears, read: dose: 200.0 mg/kg/injection, schedule: Q01DX009 (ip), vehicle: Klucel (hydroxypropylcellulose) (HPC).
Setting [8] is: dose: 240.0 mg/kg/injection, schedule: Q01DX005 (ip), vehicle: saline with Tween-80.
[9] abbreviates: dose: 200.0 mg/kg/injection, schedule: Q01DX009 (ip), vehicle: saline with Tween-80.
The mark [10] stands for this setting: dose: 240.0 mg/kg/injection, schedule: Q01DX005 (ip), vehicle: Klucel (hydroxypropylcellulose) (HPC).
[11] abbreviates: dose: 200.0 mg/kg/injection, schedule: Q01DX009 (ip), vehicle: water.
The mark [12] stands for this setting: dose: 12.5 mg/kg/injection, schedule: Q01DX005 (ip), vehicle: saline with Tween-80.
Setting [13] is: dose: 25.0 mg/kg/injection, schedule: Q01DX005 (ip), vehicle: saline with Tween-80.
Setting [14] is: dose: 400.0 mg/kg/injection, schedule: Q04DX003 (ip), vehicle: saline with Tween-80.
The mark [15] stands for this setting: dose: 120.0 mg/kg/injection, schedule: Q01DX005 (ip), vehicle: saline with Tween-80.

Regarding `CCN(CC)[P+](c1cc(OC)ccc1OC)(N(CC)CC)N(CC)CC`, the T/C is 130 % of control [5 of 6 alive] (dose: 6.25 mg/kg/injection, schedule: Q01DX009 (ip), vehicle: Klucel (hydroxypropylcellulose) (HPC)) and 139 % of control under setting [1]. The survivor count under setting [1] is 6 of 6 and the survivor count under setting [2] was 0 of 6.
With `COc1cc(/C=C/C(=O)C(CN(C)C)CN(C)C)cc(OC)c1OC`, the survivor count was 0 of 6 (dose: 25.0 mg/kg/injection, schedule: Q01DX005 (ip), vehicle: Klucel (hydroxypropylcellulose) (HPC)); 0 of 6 under setting [3]; 0 of 6 under setting [4]; 0 of 6 under setting [5].
With `CC1CCP(c2ccccc2)C1` (configuration not stated), the survivor count under setting [6] is given as 2 of 6.
In the case of `C(=C\c1cc2ccc(C3=NCCN3)cc2[nH]1)/c1ccc(C2=NCCN2)cc1`, the T/C was 134 % of control (dose: 12.5 mg/kg/injection, schedule: Q04DX003 (ip), vehicle: saline); 125 % of control (dose: 25.0 mg/kg/injection, schedule: Q04DX003 (ip), vehicle: saline); 132 % of control (dose: 100.0 mg/kg/injection, schedule: Q04DX003 (ip), vehicle: saline). The survivor count is, setting by setting: (dose: 200.0 mg/kg/injection, schedule: Q04DX003 (ip), vehicle: saline) 0 of 6; (dose: 400.0 mg/kg/injection, schedule: Q04DX003 (ip), vehicle: saline) 1 of 6.
In the case of `CN(C)/C=C(\C#N)C=O`, the survivor count (dose: 75.0 mg/kg/injection, schedule: Q01DX009 (ip), vehicle: saline sonified) was 2 of 6.
For `CN(C)CCOC1=Nc2ccccc2O/C1=C/c1ccccc1`, the survivor count under setting [7] is 0 of 6.
For `C1=Nc2ccccc2/C1=C/c1c[nH]c2ccccc12`, the survivor count (dose: 400.0 mg/kg/injection, schedule: Q01DX005 (ip), vehicle: saline with Tween-80) is 1 of 6.
In the case of `COc1ccc(C(=O)Nc2c(Cl)cccc2Cl)cc1OC`, the survivor count under setting [8] is listed as 6 of 6.
Take `O=C(NC(=S)Nc1ccsc1)c1ccccc1`: the survivor count under setting [9] is on record as 6 of 6.
As for `O=Cc1cc2ccc3ccccc3c2[nH]1`, the survivor count is, setting by setting: (dose: 100.0 mg/kg/injection, schedule: Q01DX001 (ip), vehicle: saline with Tween-80) 6 of 6; under setting [6], 5 of 6.
For `CO[n+]1ccccc1Cc1ccccc1`, where the note is “dose: 25.0 mg/kg/injection, schedule: Q01DX009 (ip), vehicle: saline”, the T/C is 146 % of control.
Turning to `O=C(Nc1ccc([N+](=O)[O-])cc1C(Sc1ccccc1)c1ccccc1)c1ccc([N+](=O)[O-])cc1` (configuration not stated), the survivor count under setting [6] was 6 of 6.
`Nc1[nH]c(=S)[nH]c(=O)c1NS(=O)(=O)c1ccc([N+](=O)[O-])cc1`: the T/C is 141 % of control (dose: 60.0 mg/kg/injection, schedule: Q01DX005 (ip), vehicle: Klucel (hydroxypropylcellulose) (HPC)); 143 % of control (dose: 120.0 mg/kg/injection, schedule: Q01DX005 (ip), vehicle: Klucel (hydroxypropylcellulose) (HPC)); 142 % of control under setting [10]. Also, under setting [10], the survivor count was 5 of 6.
Turning to `O=C1NC(CN2CCCC(O)C2)C(=O)NC1CN1CCCC(O)C1` (configuration not stated), under setting [11], the survivor count is on record as 5 of 5.
Take `COC(=O)c1nc(N)nc(C(=O)OC)c1C(=O)c1ccc(Cl)c(Cl)c1`: the survivor count under setting [8] was 0 of 6.
Take `NCC(=O)NCC(=O)NC1(C(=O)O)CCCC1`: the T/C (dose: 200.0 mg/kg/injection, schedule: Q01DX005 (ip), vehicle: saline) is 134 % of control.
Turning to `CN(C)c1ncnc2c1ncn2C1CCCCO1` (configuration not stated), the survivor count is listed as 2 of 5 under setting [4] and 2 of 5 under setting [5].
Take `O=C(NN(Cn1c(=S)sc2ccccc21)Cn1c(=S)sc2ccccc21)c1ccncc1`: the survivor count is, setting by setting: (dose: 25.0 mg/kg/injection, schedule: Q01DX009 (ip), vehicle: Klucel (hydroxypropylcellulose) (HPC)) 6 of 6; under setting [2], 6 of 6; (dose: 100.0 mg/kg/injection, schedule: Q01DX009 (ip), vehicle: Klucel (hydroxypropylcellulose) (HPC)) 6 of 6; under setting [7], 5 of 6.
For the compound `CC(=O)C(C(C)=O)C(C(C)=O)C(C)=O.[Cu]`, the survivor count is, setting by setting: under setting [12], 1 of 5; under setting [13], 0 of 5.
For `Cc1ccccc1C[P+](c1ccccc1)(c1ccccc1)c1ccccc1`, the survivor count is on record as 6 of 6 (dose: 20.0 mg/kg/injection, schedule: Q01DX009 (ip), vehicle: saline with Tween-80); 0 of 6 (dose: 100.0 mg/kg/injection, schedule: Q04DX003 (ip), vehicle: saline with Tween-80); 0 of 6 (dose: 200.0 mg/kg/injection, schedule: Q04DX003 (ip), vehicle: saline with Tween-80); 0 of 6 under setting [14]. Under “dose: 20.0 mg/kg/injection, schedule: Q04DX003 (ip), vehicle: saline with Tween-80”, the T/C was 137 % of control.
On to `O=C(Nc1ccc(Cl)cc1)Nc1nnc(Cc2ccc(Cl)cc2)o1`, for which, under “dose: 200.0 mg/kg/injection, schedule: Q01DX005 (ip), vehicle: saline with Tween-80”, the survivor count is listed as 6 of 6.
With `C=CCc1ccc(O)c(OC)c1`, the survivor count (dose: 200.0 mg/kg/injection, schedule: Q01DX009 (ip), vehicle: other) is given as 6 of 6 and the survivor count (dose: 400.0 mg/kg/injection, schedule: Q01DX009 (ip), vehicle: other) is listed as 0 of 6.
Take `CCN(CC)OC(=O)/C=C/c1ccccc1`: the survivor count is listed as 6 of 6 under setting [15] and 5 of 6 under setting [8].
Take `O=c1ncc2ccc([N+](=O)[O-])cc2[nH]1`: the T/C under setting [3] is 93, 97, 99, 123 % of control. The survivor count under setting [4] is 4 of 5 and the survivor count under setting [5] is 0 of 5.
Consider `C=CCOc1cc2c(cc1C/C=C/c1cc(OC)c(OC)c(OC)c1)OCO2`, for which the survivor count under setting [15] is on record as 6 of 6 and the survivor count under setting [8] is listed as 6 of 6.
`COc1c2occc2c(N=Cc2ccc([N+](=O)[O-])cc2)c2ccc(=O)oc12`: the survivor count is 6 of 6 (dose: 3.0 mg/kg/injection, schedule: Q01DX005 (ip), vehicle: saline with Tween-80); 6 of 6 (dose: 6.0 mg/kg/injection, schedule: Q01DX005 (ip), vehicle: saline with Tween-80); 6 of 6 under setting [12]; 6 of 6 under setting [13]; 6 of 6 (dose: 50.0 mg/kg/injection, schedule: Q01DX005 (ip), vehicle: saline with Tween-80).
As for `c1ccc(C2=NNC(c3ccccn3)=C3CCCCCCC3=N2)nc1`, the T/C (dose: 12.5 mg/kg/injection, schedule: Q01DX009 (ip), vehicle: water) is 125 % of control. Besides, the survivor count by setting is: (dose: 100.0 mg/kg/injection, schedule: Q01DX009 (ip), vehicle: water) 5 of 6; under setting [11], 0 of 6.
As for `CCOC(=O)c1c[nH]c2c(=O)n(C)c(=O)[nH]c12`, under setting [14], the survivor count is on record as 4 of 6.
On to `CCCc1cccc2c3c([nH]c12)C(CC)(CC(=O)O)CCC3` (configuration not stated), for which the survivor count is 5 of 6 (dose: 100.0 mg/kg/injection, schedule: Q01DX009 (ip), vehicle: saline with Tween-80) and 5 of 6 under setting [9].
Regarding `C[n+]1ccn(Cc2ccc([N+](=O)[O-])cc2)c1`, the survivor count (dose: 200.0 mg/kg/injection, schedule: Q01DX009 (ip), vehicle: saline) is on record as 6 of 6.
Regarding `C/C(=N\N=c1/cc(Cl)n(C)c(=O)n1C)c1ccc(Cl)cc1`, the survivor count under setting [7] is recorded as 6 of 6.
Turning to `CC(=O)Nc1ccc(C(=O)O)c([N+](=O)[O-])c1`, the survivor count (dose: 400.0 mg/kg/injection, schedule: Q01DX009 (ip), vehicle: Klucel (hydroxypropylcellulose) (HPC)) was 4 of 6.
